Measured values: patent US4967772A, “Tobacco smoking article and treatment of tobacco smoke with at least one alcohol” (C.A. Blockers, Inc., priority 1987, dated 1990)
At least one structure is not confirmed: it was looked up by name or label, or the drawing left a doubt.

Tested on: nitrosamine localization
Assay: Inhibition of selective localization of nitrosamines (delocalization), general statement
Assay type: in vivo
Excerpt: The alcohols which are operable according to the invention include alcohols having two or more carbons. However, it is preferable to use alcohols having alkyl groups of at least three carbons or greater. The alkyl groups may have a straight-chain or branched chain structure. Moreover, the alkyl groups may have a cyclic or acyclic structure.

Compound: CCN(CC)C(=S)S [diethyldithiocarbamate]
- delocalization of nitrosamines: found to delocalize nitrosamines
